These are yes or no findings as the source states them, for the method shown. Some entries that bind do so weakly or less than the wild type.

The target of experiment [1] is T1, CTF ectodomain of recombinant c-CDCP1 cut 2 (human) (UniProt Q9H5V8).
T1 sequence: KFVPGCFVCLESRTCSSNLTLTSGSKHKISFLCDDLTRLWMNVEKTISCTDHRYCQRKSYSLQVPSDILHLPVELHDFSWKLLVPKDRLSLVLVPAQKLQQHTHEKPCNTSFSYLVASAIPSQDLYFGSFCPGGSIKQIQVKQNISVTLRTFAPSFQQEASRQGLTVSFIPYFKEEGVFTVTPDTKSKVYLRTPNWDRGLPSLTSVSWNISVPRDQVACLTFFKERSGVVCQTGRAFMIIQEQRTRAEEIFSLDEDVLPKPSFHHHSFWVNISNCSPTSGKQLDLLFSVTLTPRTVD
Kind of experiment: co-purification after co-expression; NTF and CTF ectodomain on separate plasmids cotransfected in BirA-Expi293; protein A or Ni-NTA affinity chromatography; SDS-PAGE.

Experiment [2] has as its target T2, CTF ectodomain of recombinant c-CDCP1 cut 1 (human) (UniProt Q9H5V8).
T2 sequence: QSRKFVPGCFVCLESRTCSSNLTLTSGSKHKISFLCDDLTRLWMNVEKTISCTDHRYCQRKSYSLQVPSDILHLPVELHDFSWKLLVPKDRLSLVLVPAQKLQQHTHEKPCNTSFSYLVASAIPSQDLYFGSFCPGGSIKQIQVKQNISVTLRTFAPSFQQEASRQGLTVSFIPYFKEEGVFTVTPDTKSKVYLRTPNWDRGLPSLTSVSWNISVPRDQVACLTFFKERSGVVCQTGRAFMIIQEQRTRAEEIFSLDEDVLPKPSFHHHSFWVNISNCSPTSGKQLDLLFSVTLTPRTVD
Described as above.

In experiment [3] the target is T3, CTF (residues 370-836) of c-CDCP1 on HEK293T c-CDCP1 cells (human) (UniProt Q9H5V8).
T3 sequence: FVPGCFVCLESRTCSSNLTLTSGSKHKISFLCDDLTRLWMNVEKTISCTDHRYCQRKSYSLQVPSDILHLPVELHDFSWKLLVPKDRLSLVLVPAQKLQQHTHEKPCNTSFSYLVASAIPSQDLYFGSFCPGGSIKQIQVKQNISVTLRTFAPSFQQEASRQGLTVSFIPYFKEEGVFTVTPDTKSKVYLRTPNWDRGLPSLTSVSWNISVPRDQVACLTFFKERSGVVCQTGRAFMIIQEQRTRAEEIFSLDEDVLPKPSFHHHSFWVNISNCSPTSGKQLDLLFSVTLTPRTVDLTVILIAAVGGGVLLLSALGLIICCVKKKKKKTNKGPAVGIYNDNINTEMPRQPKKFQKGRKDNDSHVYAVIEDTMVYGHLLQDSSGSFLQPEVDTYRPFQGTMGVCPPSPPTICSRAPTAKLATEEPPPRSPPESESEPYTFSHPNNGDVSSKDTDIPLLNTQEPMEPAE
Description: flow cytometry on cells; HEK293T c-CDCP1 cells (CTF and NTF made as 2 polypeptides from one T2A vector); the NTF on the cells detected with IgG 4A06. On the technique in general: A flow cytometer gives signals particle by particle.

B1: NTF of recombinant c-CDCP1 cut 2 (domain or fragment, UniProt Q9H5V8 30-368)
chain: FEIALPRESNITVLIKLGTPTLLAKPCYIVISKRHITMLSIKSGERIVFTFSCQSPENHFVIEIQKNIDCMSGPCPFGEVQLQPSTSLLPTLNRTFIWDVKAHKSIGLELQFSIPRLRQIGPGESCPDGVTHSISGRIDATVVRIGTFCSNGTVSRIKMQEGVKMALHLPWFHPRNVSGFSIANRSSIKRLCIIESVFEGEGSATLMSANYPEGFPEDELMTWQFVVPAHLRASVSFLNFNLSNCERKEERVEYYIPGSTTNPEVFKLEDKQPGNMAGNFNLSLQGCDQDAQSPGILRLQFQVLVQHPQNESNKIYVVDLSNERAMSLTIEPRPVKQSR
Consider B1, for which, in experiment [1], the binding entry was “binds”.

B2: NTF of recombinant c-CDCP1 cut 1 (domain or fragment, UniProt Q9H5V8 30-365)
chain: FEIALPRESNITVLIKLGTPTLLAKPCYIVISKRHITMLSIKSGERIVFTFSCQSPENHFVIEIQKNIDCMSGPCPFGEVQLQPSTSLLPTLNRTFIWDVKAHKSIGLELQFSIPRLRQIGPGESCPDGVTHSISGRIDATVVRIGTFCSNGTVSRIKMQEGVKMALHLPWFHPRNVSGFSIANRSSIKRLCIIESVFEGEGSATLMSANYPEGFPEDELMTWQFVVPAHLRASVSFLNFNLSNCERKEERVEYYIPGSTTNPEVFKLEDKQPGNMAGNFNLSLQGCDQDAQSPGILRLQFQVLVQHPQNESNKIYVVDLSNERAMSLTIEPRPVK
In the case of B2, in experiment [2], the binding entry is recorded as “binds”.

B3: NTF (residues 30-369) of c-CDCP1 on HEK293T c-CDCP1 cells (domain or fragment, UniProt Q9H5V8 30-369)
chain: FEIALPRESNITVLIKLGTPTLLAKPCYIVISKRHITMLSIKSGERIVFTFSCQSPENHFVIEIQKNIDCMSGPCPFGEVQLQPSTSLLPTLNRTFIWDVKAHKSIGLELQFSIPRLRQIGPGESCPDGVTHSISGRIDATVVRIGTFCSNGTVSRIKMQEGVKMALHLPWFHPRNVSGFSIANRSSIKRLCIIESVFEGEGSATLMSANYPEGFPEDELMTWQFVVPAHLRASVSFLNFNLSNCERKEERVEYYIPGSTTNPEVFKLEDKQPGNMAGNFNLSLQGCDQDAQSPGILRLQFQVLVQHPQNESNKIYVVDLSNERAMSLTIEPRPVKQSRK
Take B3: the binding entry in experiment [3] is reported as “binds”.

The values are drawn from paper PMC8843743, “Targeting a proteolytic neoepitope on CUB domain containing protein 1 (CDCP1) for RAS-driven cancers” (The Journal of Clinical Investigation, 2022).
